Reference: PubChem BioAssay AID493014 (National Center for Advancing Translational Sciences (NCATS), 2011)
The list shows a part of the results. Further columns of the screen follow, without active or inactive calls. Most of these compounds were active or inconclusive in the main read-out, so they are no random draw. Potencies come from curve fits of mixed quality, noted in brackets.

Test: qHTS Assay to Find Inhibitors of Chronic Active B-Cell Receptor Signaling
Conditions: ABC-DLBCL IkBa-CBG/CBR reporter, luminescence ratio (green luciferase fused to IkBa over red control in TMD8 lymphoma cells), 4 h
Procedure, shortened: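 Doxycycline induced both beetle luciferases in TMD8 lymphoma cells; IKK-driven degradation limits the IkappaBalpha-fused green signal, while red luminescence normalises for cell number and nonspecific effects. Compounds tested up to 46 uM, 4 hrs.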

[1] = measured here: CBR red luminescence, cell number
[2] = measured here: IkBa-CBG green luminescence

Which AC50 [1] does the source give for `CCC(NC(=O)c1ccccc1NC(=O)c1ccc(C)cc1)C(=O)O` (configuration not stated) here?
Its AC50 is 23.1 µM [falling, partial curve, poor fit].

Which AC50 [1] does the source give for `Cn1c(SCC(=O)Nc2cccc(S(=O)(=O)N3CCOCC3)c2)nnc1-c1ccncc1` here?
Its AC50 is 25.1 µM [rising, single point].

Which AC50 [1] does the source give for `Cc1c(Cl)cccc1NC(=S)N(Cc1cccnc1)Cc1ccccc1Cl` here?
Its AC50 is 12.6 µM [falling, single point].

With `CCOc1cc(/C=N/OC(C)=O)ccc1OCc1ccccc1` as the molecule, how does the AC50 [1] read?
The AC50 was 0.1 µM [rising, full curve, poor fit].

Which AC50 [1] does the source give for `O=C(Nc1nc(-c2cccs2)cs1)C1=COCCO1` here?
The AC50 was 14.6 µM [falling, single point].

Which AC50 [1] does the source give for `COc1ccc(NC(=O)c2ccc(NCCCN3CCOCC3)c([N+](=O)[O-])c2)cc1` here?
The AC50 was 6.51 µM [falling, partial curve, poor fit].

Which AC50 [1] does the source give for `CCOC(=O)c1sc(N)nc1-c1ccccc1` here?
The AC50 was 0.164 µM [falling, partial curve, poor fit].

For `COc1cc(NC(=O)C2CCN(c3cnccn3)CC2)cc(OC)c1OC`, which AC50 [1] is on record?
The AC50 was 12.6 µM [falling, partial curve, poor fit].

Which AC50 [1] does the source give for `O=C(Cn1c(=O)oc2ccccc21)NCCc1ccccc1` here?
Its AC50 is 35.5 µM [falling, single point].

Which AC50 [1] does the source give for `CC(C)CCNC(=O)CCCOc1ccccc1` here?
Its AC50 is 11.6 µM [rising, partial curve].

For `O=C(CCCOc1ccc(Cl)cc1)NCC1CCCO1` (configuration not stated), which AC50 [2] is on record?
Its AC50 is 35.5 µM [rising, partial curve, poor fit].

Which AC50 [1] does the source give for `Cc1nc(SCc2nc3ccccc3[nH]2)c2oc3cc(Br)ccc3c2n1` here?
Its AC50 is 25.9 µM [falling, single point].

With `CCc1nnc(SCC(=O)Nc2ccc(N3CCOCC3)cc2)o1` as the molecule, how does the AC50 [1] read?
Its AC50 is 6.51 µM [falling, single point].

Which AC50 [1] does the source give for `O=C(O)c1ccc(CSCc2ccccc2F)o1` here?
The AC50 was 0.184 µM [rising, full curve, poor fit].

For `COC(=O)c1sccc1NC(=O)C1CC=CCC1C(=O)O` (configuration not stated), which AC50 [1] is on record?
The AC50 was 5.8 µM [falling, partial curve, poor fit].

With `O=C(N/N=C/c1ccc(O)c([N+](=O)[O-])c1)C1CC1(c1ccccc1)c1ccccc1` (configuration not stated) as the molecule, how does the AC50 [1] read?
Its AC50 is 4.47 µM [falling, full curve, poor fit].

Which AC50 [1] does the source give for `CC(OC(=O)CNC(=O)COc1ccccc1)C(=O)N(C)Cc1ccccc1` (configuration not stated) here?
The AC50 was 18.4 µM [rising, single point].

Which AC50 [1] does the source give for `CC(=O)NCCn1c(SCc2ccccc2C)nc2ccccc2c1=O` here?
The AC50 was 35.5 µM [falling, single point].

Which AC50 [1] does the source give for `O=C(NNC(=O)c1ccccc1F)c1cccc(Cl)c1` here?
The AC50 was 10 µM [falling, partial curve].

For `Cc1ccc(/C=C\c2nccc3c2[nH]c2ccccc23)cc1`, which AC50 [1] is on record?
The AC50 was 10 µM [falling, partial curve, poor fit].

With `CCOc1cc(N2CCOCC2)c(OCC)cc1NC(=O)c1cnccn1` as the molecule, how does the AC50 [1] read?
The AC50 was 9.2 µM [rising, partial curve].

What about the AC50 [2] of the same molecule?
Its AC50 is 10.3 µM [falling, partial curve, poor fit].

Which AC50 [1] does the source give for `O=C(CCC(=O)N1CCN(S(=O)(=O)c2ccc([N+](=O)[O-])cc2)CC1)N1CCOCC1` here?
Its AC50 is 18.4 µM [rising, partial curve, poor fit].

Which AC50 [1] does the source give for `Cc1ccc(C(=O)CN2/C(=C(\O)c3ccccc3)C(=O)c3ccccc3S2(=O)=O)c(C)c1` here?
The AC50 was 0.708 µM [falling, full curve, poor fit].

Which AC50 [1] does the source give for `c1ccc(CCn2c(SCc3ccccc3)nnc2-c2ccncc2)cc1` here?
Its AC50 is 9.2 µM [falling, partial curve, poor fit].

With `CCCn1c(SCC(=O)c2cc(OC)ccc2OC)nnc1-c1ccco1` as the molecule, how does the AC50 [1] read?
Its AC50 is 15.8 µM [falling, partial curve, poor fit].

With `CCOC(=O)c1c(NC(=S)Nc2cccc(C)c2)sc2c1CC(C)(C)SC2` as the molecule, how does the AC50 [1] read?
Its AC50 is 8.2 µM [falling, partial curve].

With `CN(C)CCCNC(=O)/C(=C\c1ccc(-c2cccc([N+](=O)[O-])c2)o1)NC(=O)c1ccccc1` as the molecule, how does the AC50 [1] read?
The AC50 was 14.1 µM [falling, partial curve, poor fit].

For `Cc1cc(C(=O)NNC(=S)NC2CCCCC2)cs1`, which AC50 [1] is on record?
Its AC50 is 10 µM [falling, partial curve, poor fit].

With `O=C(NCCCN1CCOCC1)C1COc2ccccc2O1` (configuration not stated) as the molecule, how does the AC50 [1] read?
Its AC50 is 6.31 µM [rising, partial curve, poor fit].

For `O=C(CN1CCOCC1)Nc1ccc(Cl)c(Cl)c1`, which AC50 [1] is on record?
The AC50 was 0.398 µM [rising, full curve, poor fit].

For `COc1ccc2nc(Nc3ccccc3)sc2c1`, which AC50 [1] is on record?
Its AC50 is 35.5 µM [falling, single point].

With `Cc1ccc(N2CN=C(c3ccccc3)NC2=S)cc1` as the molecule, how does the AC50 [1] read?
The AC50 was 29.1 µM [falling, single point].

Which AC50 [1] does the source give for `COc1ccc(Br)cc1C1Nc2cccc3cccc(c23)N1` here?
Its AC50 is 35.5 µM [falling, single point].

With `CCC(=O)Nc1ccccc1C(=O)N1CCCC1` as the molecule, how does the AC50 [1] read?
The AC50 was 0.058 µM [rising, full curve, poor fit].

With `CC(C)(C)c1ccc(C(=O)NC(=S)NCc2cccnc2)cc1` as the molecule, how does the AC50 [1] read?
Its AC50 is 29.1 µM [falling, single point].

For `COc1cccc(/C=C2\SC(=S)N(C(C)C(=O)NC3C=CS(=O)(=O)C3)C2=O)c1` (configuration not stated), which AC50 [1] is on record?
Its AC50 is 17.8 µM [falling, single point].

Which AC50 [1] does the source give for `CCOc1ccccc1NC(=O)c1nnn(-c2ccc3c(c2)OCCO3)c1N` here?
Its AC50 is 1.58 µM [falling, full curve, poor fit].

With `Cc1cc(=O)n2[nH]c(N)c(N=Nc3ccccc3F)c2n1` as the molecule, how does the AC50 [1] read?
The AC50 was 10.3 µM [falling, partial curve, poor fit].

Which AC50 [2] does the source give for `Cc1ccc(S(=O)(=O)N(CC(=O)N=Nc2c(O)[nH]c3ccccc23)c2ccc(C)c(C)c2)cc1` here?
Its AC50 is 20.6 µM [rising, partial curve, poor fit].

For `Nc1nn(-c2ccccc2)c(N)c1N=Nc1cccc(F)c1`, which AC50 [1] is on record?
Its AC50 is 11.2 µM [falling, partial curve].

With `CC(C)(C)c1ccc(OC(=O)c2ccccc2)cc1` as the molecule, how does the AC50 [1] read?
The AC50 was 31.6 µM [rising, single point].
